This test in a line: qHTS Assay for Lipid Storage Modulators in Drosophila S3 Cells.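 On cell number change: cells counted by Cell Tracker Red CMTPX staining in the red channel.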 The note with it: BODIPY lipid droplet fluorescence, 18-24 h; for cell number change: measured here: cell count max response, cells fed with added oleic acid. The essentials:
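Drosophila S3 cells loaded with oleic acid (400 uM, as added) and compounds at several concentrations; lipid droplets imaged by 488-nm laser-scanning cytometry, 500–530 nm intensity and object ratio to cell channel. Percent activity normalized to 20 uM Triacsin C.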
(In qHTS, concentration-response curves come from the screen itself.)

Where [1] appears, read: measured here: cell number channel AC50, cells fed with added oleic acid.
Where [2] appears, read: measured here: lipid fluorescence (Fed channel) AC50, cells fed with added oleic acid.

In PubChem BioAssay AID2685 (National Center for Advancing Translational Sciences (NCATS), 2010) one finds cell number change and AC50 data, which are given here for 38 compounds.

This is one part of the list. The main result of the screen is listed elsewhere. These columns were measured beside it and carry no call. The list favours compounds with an active or inconclusive main result. Potencies come from curve fits of mixed quality, noted in brackets.

Turning to `CCOC(=O)c1ccc(N2C(=O)C3CCOc4ccccc4C32)cc1` (stereo not drawn), the cell number change was -13.8%.
For `Cc1[nH]n(-c2ncc(-c3ccccc3)s2)c(=O)c1C(c1ccc(Cl)cc1)C(C#N)C#N` (stereo not drawn), the cell number change is -43.8%. For the same compound, under setting [1], the half-maximal activity concentration (AC50) was 16.4 µM [falling, single point].
In the case of `O=C(/C=C/c1ccc(F)cc1)NCC1(c2ccccc2)CCOCC1`, the cell number change came to 14.9%. Moreover, under setting [2], the AC50 was 1.64 µM [rising, partial curve].
Take `N=C(N)SCc1nc2ccccc2c(=O)n1-c1ccccc1Cl`: the cell number change was -19.2%.
Consider `Cc1ccccc1/C=N\NC(=O)c1ccc(Cn2cccn2)o1`, for which the cell number change was determined as 15.7%. Moreover, the concentration at half-maximal activity (AC50) under setting [2] is 0.146 µM [rising, partial curve].
As for `O=c1cc(O)sc2ccccc12`, the AC50 is, setting by setting: under setting [1], 1.84 µM [rising, partial curve]; under setting [2], 2.06 µM [rising, partial curve].
Regarding `Cc1cc(Oc2ccccc2)nc(N2CCOCC2)n1`, the AC50 reads like this: under setting [1], 0.13 µM [falling, full curve, poor fit]; under setting [2], 0.651 µM [falling, partial curve, poor fit].
As for `CCS(=O)(=O)N1CCC(c2nc(-c3ccc(C(F)(F)F)cc3)no2)CC1`, the cell number change is -57.4%. Moreover, the AC50 under setting [1] was 11.6 µM [falling, partial curve, poor fit]. In addition, the AC50 under setting [2] is 5.8 µM [falling, partial curve].
With `FC(F)(F)c1cccc(-c2nc(COc3ccc(Cl)cc3Cl)no2)c1`, the cell number change was 28.1%. Further, under setting [2], the AC50 was 29.1 µM [rising, single point].
Take `CN(C)C(=O)CN1CCN(c2nc3nonc3nc2N2CCCCC2)CC1`: the cell number change turned out to be 1.19%. The AC50 under setting [2] was 0.461 µM [rising, full curve, poor fit].
Take `Cn1c(Cc2cccs2)nnc1SCC(=O)Nc1ccc(C(N)=O)cc1`: the cell number change is -43.6%. Under setting [1], the AC50 was 20.6 µM [falling, single point]. Further, under setting [2], the AC50 is 20.6 µM [rising, partial curve, poor fit].
In the case of `O=C(Cn1nc(-c2cccc([N+](=O)[O-])c2)c2ccccc2c1=O)NCC1CCCO1` (stereo not drawn), the cell number change was 38.2%. The concentration at half-maximal activity (AC50) under setting [1] is 29.1 µM [rising, single point].
On to `COc1ccc(C(CNC(=O)Cc2ccccc2Cl)N2CCCCC2)cc1` (stereo not drawn), for which the cell number change turned out to be 16.7%. For the same compound, the AC50 under setting [2] is 29.1 µM [rising, single point].
On to `Cc1ccc(NC(=O)CN(C)C(=O)c2ccccc2Cc2ccccc2)cc1`, for which the cell number change is -30.3%. Further, the AC50 under setting [1] was 2.91 µM [falling, full curve]. For the same compound, under setting [2], the AC50 is 6.51 µM [falling, single point].
In the case of `O=C(CCN1CCOCC1)NNC(=S)NC(=O)c1ccc(Br)cc1`, the cell number change was found to be 4.48%. Under setting [1], the AC50 is 4.11 µM [rising, single point].
Regarding `O=C(COc1ccc(N2CC(C(=O)O)CC2=O)cc1)Nc1cccc(C(F)(F)F)c1` (stereo not drawn), the cell number change was 0.132%. For the same compound, the AC50 under setting [2] was 4.11 µM [falling, full curve, poor fit].
`CCC1(C(=O)OC)NC(c2ccco2)C2C(=O)N(c3ccc(F)cc3)C(=O)C21` (stereo not drawn): the cell number change was 11.9%. Under setting [2], the AC50 is 3.66 µM [rising, partial curve].
As to `CCCNc1nc2c(c(=O)n(C)c(=O)n2C)n1Cc1ccc(F)cc1`, the cell number change amounted to 34.5%. Also, the AC50 under setting [1] is 4.11 µM [rising, full curve, poor fit].
`O=C(CCc1nc(-c2ccccc2)no1)NCCc1ccccc1`: the cell number change amounted to 24.3%. Also, under setting [2], the half-maximal activity concentration (AC50) was 14.6 µM [rising, partial curve].
For the compound `Cc1cc2cc(CNC(=O)Cc3ccc([N+](=O)[O-])cc3)ccc2n1C`, the cell number change came to 31.4%. Moreover, under setting [1], the AC50 was 14.6 µM [rising, single point]. Moreover, under setting [2], the AC50 is 0.58 µM [rising, single point].
In the case of `O=C(Cn1cnc2sc3c(c2c1=O)CCCC3)NCC(=O)Nc1ccccc1F`, the cell number change amounted to 32.1%.
For the compound `O=C(Nc1ccc(N2CCN(C(=O)c3ccco3)CC2)cc1)c1ccccc1Br`, the cell number change is 8.5%. In addition, the AC50 under setting [2] is 6.51 µM [rising, single point].
As for `CN(CC(=O)Nc1nc2ccccc2s1)S(=O)(=O)c1ccc(Br)cc1`, the cell number change is -14.1%. Besides, the AC50 under setting [1] was 3.26 µM [rising, single point]. Also, the half-maximal activity concentration (AC50) under setting [2] was 6.51 µM [rising, single point].
In the case of `CC(=O)Nc1ccc(S(=O)(=O)NC(CC(=O)NCCc2ccccc2)C(C)C)cc1` (stereo not drawn), under setting [2], the AC50 is 0.164 µM [falling, full curve, poor fit].
With `Cc1ccc(CN(CC(=O)NC(C)(C)C)C(=O)CNC(=O)c2cccs2)cc1`, the cell number change is -14%. Besides, the AC50 under setting [2] is 11.6 µM [falling, partial curve].
As to `CCC(CC)NC(=O)/C=C/c1ccccc1Cl`, the cell number change stood at 52.3%. The AC50 under setting [1] was 16.4 µM [rising, single point]. For the same compound, under setting [2], the AC50 was 20.6 µM [rising, partial curve].
Take `CCCN1C(=O)CSC1=Nc1ccccc1`: the cell number change worked out at 10.6%.
For the compound `COc1ccc(OC)c(Nc2nc(N)nc(CSc3nnc(-c4ccncc4)o3)n2)c1`, the cell number change came to 2.29%. Further, the AC50 under setting [1] was 2.91 µM [rising, single point]. Besides, under setting [2], the concentration at half-maximal activity (AC50) was 3.26 µM [rising, partial curve].
For the compound `CCc1ccc(NC(=O)c2cnn3c(C(F)F)cc(C)nc23)cc1`, the cell number change is 2.83%. Besides, under setting [2], the AC50 is 0.13 µM [rising, single point].
Take `O=C1NC(CCc2ccccc2)C(=O)N1CCOc1ccccc1` (stereo not drawn): the concentration at half-maximal activity (AC50) under setting [2] is 0.116 µM [rising, single point].
For `O=C(Nc1cccc(F)c1)c1cc(S(=O)(=O)N2CCOCC2)ccc1N1CCCC1`, the cell number change is 42.1%. In addition, the AC50 under setting [1] was 0.103 µM [rising, full curve, poor fit]. Besides, the AC50 under setting [2] is 0.58 µM [falling, single point].
As to `CNC(=O)c1ccsc1NC(=O)c1ccc2c(c1)CCCC2`, the cell number change is 7.56%. Moreover, the AC50 under setting [2] was 0.731 µM [rising, full curve].
Take `CCCCN(CCCNC(=O)c1ccc2nc(N3CCOCC3)sc2c1)Cc1ccccc1`: the AC50 under setting [1] was 0.13 µM [falling, full curve, poor fit].
Take `CCn1c(C)[n+](CCCS(=O)(=O)[O-])c2cc(Cl)c(Cl)cc21`: the cell number change turned out to be 2.38%.
As to `O=S(=O)(Nc1ccccc1N1CCCCC1)c1ccc(F)cc1`, the cell number change was -23.8%. Further, the AC50 under setting [2] was 16.4 µM [falling, single point].
Consider `Cn1c(SCC(=O)Nc2ccccc2Br)nnc1-c1cnccn1`, for which the cell number change was -9.13%.
Turning to `CCCCc1ccc(NC(=S)N2CCCC(C)C2)cc1` (stereo not drawn), the cell number change is -40.7%.
With `COc1ccc(N(C(C)C(=O)NC2CCCCCC2)S(C)(=O)=O)cc1` (stereo not drawn), under setting [2], the AC50 was 23.1 µM [falling, partial curve].

As usually defined, the AC50 is the concentration giving half of the maximal activity seen.
